Reference: US20090252681A1 (Ablynx, published 2009)

Columns and labels:
purified EGFR (Sigma) [1] = target: T1, purified EGFR (Sigma) (human, UniProt P00533 25-1210, limits assumed)
T1 construct: native receptor purified from A431 cells; also called solid phase coated EGFR

[2] = target: purified EGFR (Sigma) (human) (UniProt P00533)
purified EGFR (Sigma) [3] = target: T1, purified EGFR (Sigma); remark: listed apart in the source

B1: 27-1-H7 (VHH)
VHH: EVQLVESGGGLVQAGGSLRLSCAASGRGAWAWFRQAPGKEREFVGGLSWSADSTYYADSVKGRFTISRDNAKNTVFLQMTNLKADDTAVYYCAAHRRPFASVFTTTRMYDYWGPGTQVTVSS
binding (purified EGFR (Sigma) [1]): binds

B3: PMP9A7 (VHH)
VHH: EVQLVESGGGLVQAGGSLRLSCAVSGRTFSGDVMGWFRQAPGKEREFVAGFSRSTSTTHYADSVKGRFTISGDNAKNTVYLQMNSLKPEDTAVYYCAANSRSSWVIFTIKGQYDRWGQGTQVTVSS
binding (purified EGFR (Sigma) [1]): binds

B4: PMP7E12 (VHH)
VHH: EVQLVESGGGLVQAGGSLRLSCTASGRTFENNAMAWFRQAAGKEREFVAGFSGSGGATYYAHSVEGRFTISRDNAKNTVDLQMNSLSLEDTAVYLCAARRKSGEVVFTIPARYDYWGQGTQVTVSS
binding (purified EGFR (Sigma) [3]): binds
binding (purified EGFR (Sigma) [1]): binds

B5: PMP11C9 (VHH)
VHH: EVQLVESGGGLVQAGASLRLSCAASGRYFSDYNMAWFRQAPGKEREFVAHISWLGGRTYYRDSVKGRFTISRDNAKDTVYLQMNSLKPEDTAVYSCAAGSPYGTELPYTRIEQYAYWGQGTQVTVSS
binding (purified EGFR (Sigma) [1]): binds

B7: PMP8B5 (VHH)
VHH: EVQLVESGGGLVQAGGSLRVSCVASIRSFSSYVVGWFRQAPGKDREFVAGIAWGDGITYYADSVKGRFTISRDHAKNTAYLQMNSLRPEDTAVYYCAVRPGMIITTIQATYGFWGQGTQVTVSS
binding (purified EGFR (Sigma) [1]): binds

Now from value to binder:

binding [2]: binds
B2: PMP11H6 (VHH)
VHH: AVQLVESGGGLVQAGGSLRLSCAASGRTFSTYTMAWFRQAPGKEREFVQGISRSDGGTYDADSVKGRFTISRDNAKNTVYLQMNSLKPEDTAVYFCAAANEYWVYVNPNRYTYWGRGTQVTVSS

binding (purified EGFR (Sigma) [1]): binds
B6: PMP9C1 (VHH)
VHH: EVQLVESGGGLVQAGGSLRLSCAASGRTFSGFAMGWFRQAPGKEREFVAAISWSGGSLLYVDSVKGRFTISRDNAKNTVHLQMNSLKPGDTAVYYCAAMVGPPPRSLDYGLGNHYEYDYWGQGTQVTVSS

Read-outs that look alike come from different tables or passages of the source. Results are given in words; binding and its absence hold for the method and conditions named. Binding can be weak; no strength is given. One block for each binder: values may come before it.
